## Assay results

Data taken from PubChem BioAssay AID1053133, deposited by Broad Institute (2014).

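Vaccinia-infected cells with a two-color viral stage reporter; Venus fluorescence read on a plate reader; the cell line is not named here; timing not stated here.
The test concentration is not given here.
Percent change in Venus reporter signal; lower (more negative) values mean stronger inhibition of that viral stage.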

Values are in %.
How 0% and 100% were set is not given here.
Common to all entries: measured here: Venus reporter, other viral stage.
Part of the compounds only, not a random draw; the main read-out is not listed here.

Compound | activity change (Venus) (%)
NC(=O)[C@H]1[C@@H]2C(=O)O[C@@H](c3ccccc3)[C@@H](c3ccccc3)N2[C@@H](c2ccccc2OCCO)[C@]12C(=O)Nc1ccccc12 | -42.04
Cc1ccc(-c2ccc([C@@H]3[C@@H](CO)N4C(=O)CN(C(=O)c5ccc(F)cc5)C[C@H]34)cc2)cc1 | -58.37
Cc1ccc(S(=O)(=O)N(C)C[C@H]2Oc3cc(Br)ccc3S(=O)(=O)N([C@@H](C)CO)C[C@@H]2C)cc1 | -38.58
COc1cccc(CN2CCC3(CC2)CN(S(C)(=O)=O)[C@H](CO)c2[nH]c4cc(OC)ccc4c23)c1 | -40.29
O=C(C[C@H]1C[C@@H]2c3cc(NC(=O)c4ccc5c(c4)OCO5)ccc3O[C@@H]2[C@@H](CO)O1)NCc1ccc(Cl)cc1 | -39.94
Cc1noc(C)c1S(=O)(=O)N(C)C[C@H]1OCCCC[C@H](C)Oc2ccc(NC(=O)Cc3ccccc3)cc2C(=O)N([C@@H](C)CO)C[C@@H]1C | -23.24
C[C@@H]1CN([C@@H](C)CO)C(=O)c2cccc(NC(=O)NC3CCCCC3)c2O[C@@H]1CN(C)C(=O)Nc1ccc(C(F)(F)F)cc1 | -46.77
C[C@@H]1CN([C@@H](C)CO)C(=O)Cc2cc(NS(=O)(=O)c3ccccc3)ccc2O[C@@H]1CN(C)Cc1ccc(-c2ccccc2)cc1 | -33.55
COc1ccc(S(=O)(=O)Nc2ccc3c(c2)C(=O)N([C@@H](C)CO)C[C@H](C)[C@@H](CN(C)S(=O)(=O)c2ccc(F)cc2)OCCCC[C@H](C)O3)cc1 | -35.71
C[C@@H]1CN([C@@H](C)CO)C(=O)c2c(c3ccccc3n2C)-c2ccccc2CO[C@@H]1CN(C)S(=O)(=O)c1ccc([N+](=O)[O-])cc1 | -24.68
C[C@@H]1CCCCO[C@H](CN(C)C(=O)Nc2ccc(C(F)(F)F)cc2)[C@H](C)CN([C@H](C)CO)C(=O)c2cc(NC(=O)c3ccncc3)ccc2O1 | -43.69
O=C(C[C@H]1CC[C@@H]2[C@H](COC[C@@H](O)CN2C(=O)Nc2ccc(Cl)c(Cl)c2)O1)NCc1ccc(Cl)cc1 | -32.02
C[C@@H]1CN([C@H](C)CO)S(=O)(=O)c2ccc(C#Cc3ccc(F)cc3)cc2O[C@@H]1CN(C)C(=O)NC1CCCC1 | -40.65
C[C@@H]1CCCCO[C@@H](CN(C)Cc2ccc(C(F)(F)F)cc2)[C@H](C)CN([C@@H](C)CO)C(=O)c2cc(N(C)C)ccc2O1 | -47.14
O=C(C[C@H]1CC[C@@H]2[C@H](COC[C@@H](O)CN2Cc2ccc(Oc3ccccc3)cc2)O1)N1CCN(c2ccccc2)CC1 | -60.75
O=C(Nc1ccc(F)cc1)N1CC(=O)N2[C@H](C1)[C@@H](c1ccc(-c3cccc(F)c3)cc1)[C@@H]2CO | -29.85
C[C@@H]1CN([C@@H](C)CO)S(=O)(=O)c2ccc(C#CC3CC3)cc2O[C@H]1CN(C)Cc1ccccn1 | -41.21
C[C@H](CO)N1C[C@H](C)[C@@H](CN(C)Cc2ccc(C(F)(F)F)cc2)Oc2ccc(NS(=O)(=O)c3cccs3)cc2CC1=O | -52.32
COc1ccc(C#Cc2ccc([C@H]3[C@H](CO)N4CCCCN(C(=O)Nc5ccc(F)cc5)C[C@@H]34)cc2)cc1 | -58.03
C[C@H]1CN([C@@H](C)CO)S(=O)(=O)c2ccc(/C=C/c3ccccc3)cc2O[C@@H]1CN(C)C(=O)C1CC1 | -49.8
N#Cc1cccc(-c2ccc([C@H]3[C@H]4CN(C(=O)Cc5ccncc5)CCCCN4[C@H]3CO)cc2)c1 | -28.65
Cc1ccc(S(=O)(=O)Nc2ccc3c(c2)CC(=O)N([C@H](C)CO)C[C@H](C)[C@H](CN(C)CC2CCCCC2)O3)cc1 | -57.39
COc1ccc(CN(C)C[C@H]2OCCCC[C@@H](C)Oc3ccc(NS(=O)(=O)c4ccc(F)cc4)cc3C(=O)N([C@H](C)CO)C[C@H]2C)cc1 | -50.8
C[C@@H]1CN([C@@H](C)CO)C(=O)c2cc(/C=C/c3ccccc3)cnc2O[C@@H]1CN(C)Cc1ccccc1 | -34.57
O=C(C[C@H]1CC[C@@H]2[C@H](COC[C@@H](O)CN2Cc2ccc3c(c2)OCO3)O1)Nc1ccc(-c2ccccc2)cc1 | -42.27
C[C@@H]1CN([C@@H](C)CO)C(=O)c2cc(NC(=O)Nc3ccc(C(F)(F)F)cc3)ccc2O[C@@H]1CN(C)Cc1ccc2c(c1)OCO2 | -62.07
C[C@@H]1CN([C@H](C)CO)C(=O)c2cccc(NS(=O)(=O)c3ccc(Cl)cc3)c2O[C@@H]1CN(C)Cc1ccc(C(F)(F)F)cc1 | -26.92
Cc1ccc(S(=O)(=O)Nc2ccc3c(c2)C(=O)N([C@H](C)CO)C[C@@H](C)[C@@H](CN(C)CC2CCCCC2)OCCCC[C@@H](C)O3)cc1 | -70.87
O=C(Nc1ccc(Cl)cc1)N1C[C@H]2[C@@H](c3ccccc31)[C@H](CO)N2CC1CCCC1 | -30.98
O=C(Nc1cccc(F)c1)N1CCCCN2[C@H](CO)[C@@H](c3ccc(-c4ccccc4F)cc3)[C@@H]2C1 | -54.97
O=C(Nc1ccc(F)cc1)N1CCCCN2[C@@H](CO)[C@@H](c3ccc(C#CC4CC4)cc3)[C@@H]2C1 | -78.41
N#Cc1ccc(-c2ccc(C3[C@@H]4CN(C(=O)Nc5ccc(C(F)(F)F)cc5)C[C@H]3N4)cc2)cc1 (some centres undefined) | -24.35
C[C@H]1CN([C@@H](C)CO)C(=O)Cc2cc(NS(=O)(=O)c3ccc(F)cc3)ccc2O[C@H]1CN(C)CC1CCCCC1 | -29.32
N#Cc1cccc(-c2ccc([C@@H]3[C@@H]4CN(S(=O)(=O)c5ccc(-c6ccccc6)cc5)C[C@H]3N4)cc2)c1 | -35.02
C[C@H]1CN([C@@H](C)CO)C(=O)c2cccc(NC(=O)Nc3cccc4ccccc34)c2O[C@H]1CN(C)C(=O)NC1CCCCC1 | -54.99
C[C@@H]1CCCCO[C@H](CN(C)CC2CCCCC2)[C@H](C)CN([C@@H](C)CO)C(=O)c2cc(NS(=O)(=O)c3ccc(F)cc3)ccc2O1 | -65.35
CO[C@@H](CN(C)S(=O)(=O)c1ccc(Cl)cc1)[C@@H](C)CN([C@H](C)CO)S(=O)(=O)c1cccc(Cl)c1 | -49.61
C[C@@H]1CN([C@H](C)CO)S(=O)(=O)c2ccc(C#Cc3ccccc3F)cc2O[C@@H]1CN(C)C(=O)Cc1ccccc1 | -58.26
C[C@H](CO)N1C[C@H](C)[C@H](CN(C)Cc2ccc(C(F)(F)F)cc2)OCCCC[C@H](C)Oc2ccc(NC(=O)c3ccncc3)cc2C1=O | -58.42
O=C(Cc1ccccn1)N1CC(=O)N2[C@H](C1)[C@@H](c1ccc(C#CCC3CCCC3)cc1)[C@@H]2CO | -32.08
C[C@H]1CN([C@@H](C)CO)S(=O)(=O)c2ccc(C#Cc3ccccc3)cc2O[C@H]1CN(C)C(=O)c1ccccn1 | -40.29
C[C@@H]1CCCCO[C@@H](CN(C)Cc2ccc(Cl)c(Cl)c2)[C@@H](C)CN([C@@H](C)CO)C(=O)c2cc(NS(=O)(=O)c3cccs3)ccc2O1 | -75.92
C[C@@H]1CCCCO[C@H](CN(C)C(=O)NC2CCCCC2)[C@H](C)CN([C@@H](C)CO)C(=O)c2cc(NS(=O)(=O)c3ccc(Cl)cc3)ccc2O1 | -60.73
COc1ccc(NC(=O)Nc2ccc3c(c2)C(=O)N([C@@H](C)CO)C[C@@H](C)[C@@H](CN(C)Cc2ccc(Oc4ccccc4)cc2)O3)cc1 | -64.08
C[C@H](CO)N1C[C@H](C)[C@@H](CN(C)Cc2ccc(-c3ccccc3)cc2)Oc2ccc(NC(=O)Cc3ccccc3)cc2CC1=O | -36.54
COc1ccc(S(=O)(=O)Nc2ccc3c(c2)C(=O)N([C@H](C)CO)C[C@H](C)[C@H](CN(C)Cc2ccc4c(c2)OCO4)OCCCC[C@H](C)O3)cc1 | -50.46